{"source": "patent US20120121533", "about": "“NUCLEIC ACID LIGANDS TO LL37” (BIOTEX, INC., published 2012)", "molecular_target": "T1, LL37 (human cathelicidin peptide LL-37) (Homo sapiens) (UniProt P49913)", "T1 sequence (looked up)": "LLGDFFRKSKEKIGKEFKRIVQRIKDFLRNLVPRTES", "test": "activity in cells", "settings": "5 uM aptamer greatly decreased IFN-alpha production by pDC cultures with 10 uM LL37 + genomic DNA (ELISA); single-stranded DNA", "note": "Where a protein sequence is shown, tags need not be part of it.", "data": [{"sequence": "ACTGGGTCTCACCATCGAAAATCGAAATGACTAAAAGGCC [SEQ7 (Apta#222)]", "values": [{"measurement": "functional effect of the aptamer", "value": "active"}]}]}
